Experimental data published in publication PMC9122930.
These are yes or no findings as the source states them, for the method shown. Binding seen in cells or lysates may run through a third protein. Some binding calls cover weakened binding; strength is not graded here. Where a sequence is shown, tags or fusion partners need not be part of it.

How the values were obtained:
[1] = target: T1, Myc-tagged PLSCR1 (mouse) (UniProt Q9JJ00); experiment: co-IP
T1 sequence: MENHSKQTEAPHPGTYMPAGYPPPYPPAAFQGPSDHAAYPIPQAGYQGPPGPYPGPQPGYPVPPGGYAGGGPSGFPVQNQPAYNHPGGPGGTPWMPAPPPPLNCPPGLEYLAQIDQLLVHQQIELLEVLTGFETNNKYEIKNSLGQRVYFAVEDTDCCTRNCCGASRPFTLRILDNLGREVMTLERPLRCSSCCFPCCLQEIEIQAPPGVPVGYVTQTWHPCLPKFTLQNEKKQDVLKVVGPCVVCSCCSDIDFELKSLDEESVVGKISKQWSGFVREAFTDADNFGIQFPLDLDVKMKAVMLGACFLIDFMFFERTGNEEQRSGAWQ

[2] = target: T2, Myc-tagged ILDR1 cytoplasmic domain (mouse) (UniProt Q8CBR1); experiment: co-IP
T2 sequence: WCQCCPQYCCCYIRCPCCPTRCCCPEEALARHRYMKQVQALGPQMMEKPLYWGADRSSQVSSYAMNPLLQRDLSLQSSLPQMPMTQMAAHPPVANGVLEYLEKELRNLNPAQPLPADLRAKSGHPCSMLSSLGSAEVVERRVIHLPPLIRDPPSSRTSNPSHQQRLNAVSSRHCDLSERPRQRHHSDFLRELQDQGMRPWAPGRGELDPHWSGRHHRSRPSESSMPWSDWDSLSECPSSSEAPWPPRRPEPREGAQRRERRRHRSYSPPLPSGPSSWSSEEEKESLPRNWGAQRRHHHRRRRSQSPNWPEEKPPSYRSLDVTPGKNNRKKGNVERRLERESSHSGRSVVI

B1: EGFP-tagged mouse ILDR1 cytoplasmic domain (domain or fragment, UniProt Q8CBR1-1 188-537)
chain: WCQCCPQYCCCYIRCPCCPTRCCCPEEALARHRYMKQVQALGPQMMEKPLYWGADRSSQVSSYAMNPLLQRDLSLQSSLPQMPMTQMAAHPPVANGVLEYLEKELRNLNPAQPLPADLRAKSGHPCSMLSSLGSAEVVERRVIHLPPLIRDPPSSRTSNPSHQQRLNAVSSRHCDLSERPRQRHHSDFLRELQDQGMRPWAPGRGELDPHWSGRHHRSRPSESSMPWSDWDSLSECPSSSEAPWPPRRPEPREGAQRRERRRHRSYSPPLPSGPSSWSSEEEKESLPRNWGAQRRHHHRRRRSQSPNWPEEKPPSYRSLDVTPGKNNRKKGNVERRLERESSHSGRSVVI
binding [1]: binds

B2: EGFP-tagged PLSCR1 (protein, UniProt Q9JJ00 1-328)
chain: MENHSKQTEAPHPGTYMPAGYPPPYPPAAFQGPSDHAAYPIPQAGYQGPPGPYPGPQPGYPVPPGGYAGGGPSGFPVQNQPAYNHPGGPGGTPWMPAPPPPLNCPPGLEYLAQIDQLLVHQQIELLEVLTGFETNNKYEIKNSLGQRVYFAVEDTDCCTRNCCGASRPFTLRILDNLGREVMTLERPLRCSSCCFPCCLQEIEIQAPPGVPVGYVTQTWHPCLPKFTLQNEKKQDVLKVVGPCVVCSCCSDIDFELKSLDEESVVGKISKQWSGFVREAFTDADNFGIQFPLDLDVKMKAVMLGACFLIDFMFFERTGNEEQRSGAWQ
binding [2]: binds
